# Screen size: about 330,000 compounds; about 7,700 (2.3%) were called active. Inconclusive means that the source gave no clear call. Such entries were picked first, then a sample of the others. The call rests on the fitted dose curve; in most records, active means well fitted inhibition curve with a large enough effect; inconclusive means small, poorly fitted or top-dose-only effect, or effect the other way; inactive means flat fitted curve, though single readings scatter. Potencies beside an inconclusive call are fits to weak or partial responses and may not hold up.
# Assay: qHTS screen for small molecules that inhibit ELG1-dependent DNA repair in human embryonic kidney (HEK293T) cells expressing luciferase-tagged ELG1; further: nearly all actives have a fitted effect of over 55% in size
# Settings: HEK293T ELG1-luciferase reporter, luminescence, 16 h, DNA damage induced by 5-fluorouridine; series mostly up to 46.1 µM
# Summary of the method: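 Quantitative HTS, concentration-response format. 2,000 cells/well co-treated with 5-fluorouridine and compound, 16 hr in 5% CO2 at 37 °C; ONE-Glo luminescence read after 30 min.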
# Potency means the concentration at half of the fitted maximal effect.
row,SMILES,Potency
1,COc1ccc(/C=C/C(O)=C(\C#N)c2nnc(N3CCOCC3)n2-c2ccccc2)cc1OC,inactive
2,CCCc1cc(C(=O)N2CCCC(C(=O)c3cc(C)c(OC)c(C)c3)C2)n(C)n1 (stereo unspecified),active: 8.2 µM
3,O=C(O)C(C(O)c1ccc([N+](=O)[O-])cc1)[n+]1ccccc1 (stereo unspecified),inactive
4,O=C(NNc1ncc(C(F)(F)F)cc1Cl)c1ccc(Cl)c(Cl)c1,inactive
5,COc1ccccc1NC(=S)N(CCc1c(C)[nH]c2ccccc12)Cc1cccs1,"inconclusive: 23.1 µM [inhibitor, single point]"
6,COc1ccc(OC)c(C2C(C#N)=C(N)Oc3cc(C)[nH]c(=O)c32)c1 (stereo unspecified),"inconclusive: 1.16 µM [activator, single point]"
7,CCOc1ccc(-n2nc3c(=O)n(CCN4CCCCC4)nc(C)c3c2C)cc1,inactive
8,CCCCCCCCCC(=O)N1c2ccccc2NC(=O)C1CC(=O)Nc1ccc(C(=O)O)cc1 (stereo unspecified),inactive
9,O=C(c1cccc(S(=O)(=O)N2CCN(c3ccc(F)cc3)CC2)c1)N1CCCC(C(F)(F)F)C1 (stereo unspecified),"inconclusive: 25.9 µM [inhibitor, single point]"
10,CCN(CC(=O)Nc1cc(Cl)ccc1C)C(=O)C1CC(=O)N(Cc2ccccc2)C1 (stereo unspecified),inactive
11,CCOC(=O)CP(=O)(c1ccccc1)c1ccccc1,inactive
12,Cc1ccc(C)c(OCCCNCc2ccccc2)c1,inactive
13,COc1cccc(CC(=O)Nc2nc(-c3ccc(OC)c(OC)c3)cs2)c1,active: 25.9 µM
14,O=C(NCCNC(=O)c1cnccn1)c1ccc(Cl)c(Cl)c1,inactive
15,Cc1c(C(=O)Nc2ccc3c(c2)OCCO3)oc2ccc(Br)cc12,"inconclusive: 18.3 µM [activator, partial curve]"
16,Cc1ccc(S(=O)(=O)NCc2ccc(C(=O)NC3CC3)cc2)cc1,"inconclusive: 10.3 µM [activator, partial curve]"
17,O=c1[nH]n(Cc2ccccc2)c2ccccc12,inactive
18,O=C(NCc1ccccc1)c1nc(S(=O)(=O)Cc2ccccc2)ncc1Cl,inactive
19,O=C(Nc1ccc(F)cc1F)c1csc(-c2ccncc2)n1,inactive
20,CCOc1ccc(C(=O)Nn2cnnc2)cc1,inactive
21,Cc1cc(C(=O)CSc2nc3ccccc3n2C)c(C)n1C,"inconclusive: 20.6 µM [activator, partial curve, poor fit]"
22,O=C(Nc1ccccc1)C1=C[C@H](C2CCCCC2)C[C@H](OCc2ccc(CO)cc2)O1,inactive
23,O=C(Cn1c(=O)c2cccn2c2ccc(F)cc21)NCCCN1CCN(c2ccccc2F)CC1,inactive
24,CCNC(=O)COc1ccc(/C=C2\COc3ccccc3C2=O)cc1OC,"inconclusive: 32.6 µM [inhibitor, single point]"

# Ordered by SMILES length (falling): part of the list above
row,SMILES,Potency
10,CCN(CC(=O)Nc1cc(Cl)ccc1C)C(=O)C1CC(=O)N(Cc2ccccc2)C1 (stereo unspecified),inactive
6,COc1ccc(OC)c(C2C(C#N)=C(N)Oc3cc(C)[nH]c(=O)c32)c1 (stereo unspecified),"inconclusive: 1.16 µM [activator, single point]"
19,O=C(Nc1ccc(F)cc1F)c1csc(-c2ccncc2)n1,inactive

# (listing goes on)

row,SMILES,Potency
1,CCN(C(=O)N(CC)c1ccccc1)c1ccccc1,"inconclusive: 16.4 µM [activator, single point]"
2,O=C(O)CCCc1nc2ccccc2s1,inactive
3,O=C(Nc1cccc2ncccc12)C(c1ccccc1)c1ccccc1,inactive
4,c1csc(CNc2ncnc3ccc(-c4ccc5c(c4)OCCO5)cc23)c1,"inconclusive: 29.1 µM [inhibitor, single point]"
5,O=C(Nc1cccnc1)c1ccccc1-c1ccccc1,inactive
6,COc1ccc(C(O)(C(C)C)C(CN2CCOCC2)c2ccc(Cl)cc2)cc1 (stereo unspecified),inactive
7,Cc1[nH]c2ccccc2c1C(=O)C(=O)NCc1ccco1,"inconclusive: 25.9 µM [inhibitor, partial curve, poor fit]"
8,CCOC(=O)c1c(NC2OC(=O)c3c2ccc(OC)c3OC)sc(C(=O)OC(C)(C)C)c1C (stereo unspecified),"inconclusive: 16.4 µM [activator, partial curve]"
9,COC(=O)c1ccc(NC(=O)CCC(=O)c2ccc(F)cc2)cc1,inactive
10,Cc1cc2c(NCCc3ccccc3)ncnc2s1,"inconclusive: 6.51 µM [activator, single point]"
11,Cn1c(/C=C/c2cccc([N+](=O)[O-])c2)c([N+](=O)[O-])c(=O)n(C)c1=O,"inconclusive: 29.1 µM [inhibitor, single point]"
12,CCCCNC(=O)N(O)C1N(/N=C/c2cccnc2)C(=S)SC1(C)C (stereo unspecified),inactive
13,COC(=O)C1=C(C(=O)OC)[C@@H]2N(Cc3ccccc3)c3ccccc3[C@@]23C[C@@H](CO)N(C(=O)NC2CCCC2)C3=N1,"inconclusive: 0.58 µM [inhibitor, full curve, poor fit]"
14,COc1cccc(CN2CCNC(=O)C2CC(=O)NCC2CCOCC2)c1 (stereo unspecified),"inconclusive: 13 µM [activator, partial curve, poor fit]"
15,CC(C)C(=O)Nc1cccc(NC(=S)NC(=O)C(c2ccccc2)c2ccccc2)c1,active: 16.4 µM
16,CCc1ccc(Nc2n[n+](-c3ccccc3)c(-c3ccc(SC)cc3)s2)cc1,inactive
17,CCOc1ccc(NC(=O)CN(c2ccc(OC)c(OC)c2)S(=O)(=O)c2ccc(C)cc2)cc1,"inconclusive: 25.9 µM [inhibitor, partial curve, poor fit]"
18,COc1ccc(-c2cc3nc(C4CCN(C(=O)OC(C)(C)C)CC4)c(C(=O)O)cn3n2)cc1,"inconclusive: 29.1 µM [inhibitor, single point]"
19,CN(C)c1nc(N)c([N+](=O)[O-])c(NCc2ccccc2)n1,"inconclusive: 16.4 µM [activator, single point]"
20,O=C(CSc1ccc(-c2cccs2)nn1)Nc1ccccc1F,"inconclusive: 20.6 µM [inhibitor, single point]"
21,COc1ccc(-c2nc(CC(=O)O)cs2)cc1OC,inactive
22,Cc1cc(N2CCOCC2)n2ncc(-c3ccc(Cl)cc3)c2n1,"inconclusive: 1.46 µM [activator, full curve]"
23,Cc1ccc(-n2ncc3c(=O)[nH]c(SCC(=O)N4CCN(c5ccccc5)CC4)nc32)cc1,"inconclusive: 5.17 µM [inhibitor, single point]"
24,Cc1ccc(C2NC(c3ccc(C)cc3)C([N+](=O)[O-])C(C)(C)C2[N+](=O)[O-])cc1 (stereo unspecified),"inconclusive: 23.1 µM [inhibitor, single point]"

row,SMILES,Potency
1,COc1ccc(Cn2c(=O)[nH]c3cc(C(=O)N4CCN(c5ccccc5OC)CC4)ccc3c2=O)cc1,active: 20.6 µM
2,Cc1cc(C(=O)N/N=C/c2ccc([N+](=O)[O-])o2)c(C)o1,"inconclusive: 20.6 µM [inhibitor, partial curve]"
3,Cc1ccsc1/C=C/c1ccc2cccc(O)c2n1,"inconclusive: 14.6 µM [activator, partial curve]"
4,Cc1noc(C)c1COC(=O)CCN1c2ccccc2Sc2ccccc21,"inconclusive: 25.1 µM [inhibitor, single point]"
5,CCCN(CC(=O)Nc1ccccc1C)C(=O)c1ccc(C)c(S(=O)(=O)N2CCCCC2)c1,inactive
6,COc1cc(NC(=O)CSc2nc3c(C)ccc(C)c3cc2C)c(C(=O)O)cc1OC,inactive
7,COc1cccc(-n2c(C)nn(CCOc3ccccc3)c2=O)c1,"inconclusive: 29.1 µM [activator, single point]"
8,O=C(NCCc1ccccc1)c1ccccc1F,"inconclusive: 7.3 µM [activator, partial curve, poor fit]"
9,COCCCNC(=O)C[C@H]1C[C@H](C(=O)N2CCCCC2)[C@@]2(CCc3ccccc3)c3[nH]c4ccc(Cl)cc4c3CCN2C1=O,active: 20.6 µM
10,CCS(=O)(=O)Nc1cccc(C2=NN(S(=O)(=O)c3ccc(C)cc3)C(c3cccs3)C2)c1 (stereo unspecified),"inconclusive: 29.1 µM [inhibitor, single point]"
11,COc1ccc(-c2cc(C(F)(F)F)nc(-n3cncn3)n2)cc1,"inconclusive: 20.6 µM [inhibitor, single point]"
12,CCC1=NN(C(=O)CCc2ccccc2O)C(O)(C(F)(F)F)C1 (stereo unspecified),inactive
13,C/C(=N\Nc1nncc2ccccc12)c1ccc(Cl)c([N+](=O)[O-])c1,"inconclusive: 20.6 µM [activator, single point]"
14,Cc1cc(=O)[nH]c(N/N=C/c2c(C)nn(-c3ccccc3)c2C)n1,inactive
15,CC[C@]12c3[nH]c4cc(CCC(=O)N(C)C)ccc4c3CCN1C(=O)[C@@H](CC(=O)NCCC1=CCCCC1)C[C@@H]2C(=O)N1CCN(C(=O)C2CC2)CC1,"inconclusive: 25.9 µM [inhibitor, partial curve, poor fit]"
16,CC1=C(C(N)=O)C(c2ccc(C)o2)C(C(N)=O)=C(C)N1,"inconclusive: 6.31 µM [activator, partial curve]"
17,COc1ccc(OCC(=O)Nc2ccc(C(=O)Nc3ccccc3C(=O)O)cc2)cc1,"inconclusive: 18.3 µM [activator, partial curve, poor fit]"
18,CCOC(=O)C1=C(C)NC2=C(C(=O)c3ccccc32)C1c1cccnc1 (stereo unspecified),"inconclusive: 14.6 µM [inhibitor, partial curve, poor fit]"
19,O=C(Cc1ccc(F)cc1)NCCc1ccccc1,"inconclusive: 18.4 µM [activator, partial curve, poor fit]"
20,COc1cccc(NC(=O)CN(C)C(=O)c2ccccc2Sc2ccccc2C#N)c1,"inconclusive: 20.6 µM [inhibitor, single point]"
21,CC1(C)CC(=O)c2sc(N3CCCCC3)nc2C1,"inconclusive: 12.6 µM [activator, partial curve]"
22,C/C(CC(=O)Nc1ccc(Cl)c(Cl)c1)=N\NC(=O)C(=O)N1CCCCC1,inactive
23,O=[N+]([O-])c1nn(-c2ccc(Cl)cc2)n(O)c1=NCc1ccccc1Cl,"inconclusive: 29.1 µM [activator, single point]"

# — PubChem BioAssay AID504467 (National Center for Advancing Translational Sciences (NCATS), 2011)
